Among the data in article PMC6933394 are binding values, retold here.

Chains of the proteins cited; added tags and fusions are not shown. Lines headed by an entry give the natural chain unless they say otherwise; changes in a name come on top.
UniProt Q14457: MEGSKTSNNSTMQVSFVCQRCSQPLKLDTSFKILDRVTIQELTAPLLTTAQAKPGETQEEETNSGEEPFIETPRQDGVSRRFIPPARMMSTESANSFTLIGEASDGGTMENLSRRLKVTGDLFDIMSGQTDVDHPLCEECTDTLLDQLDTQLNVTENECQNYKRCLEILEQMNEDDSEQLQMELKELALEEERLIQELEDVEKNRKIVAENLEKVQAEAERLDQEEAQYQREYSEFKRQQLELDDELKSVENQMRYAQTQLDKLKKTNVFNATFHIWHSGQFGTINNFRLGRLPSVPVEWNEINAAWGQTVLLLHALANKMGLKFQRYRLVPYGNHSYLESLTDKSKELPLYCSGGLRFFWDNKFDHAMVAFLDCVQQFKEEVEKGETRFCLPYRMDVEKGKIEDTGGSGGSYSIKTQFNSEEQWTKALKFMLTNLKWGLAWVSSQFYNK
UniProt P63104: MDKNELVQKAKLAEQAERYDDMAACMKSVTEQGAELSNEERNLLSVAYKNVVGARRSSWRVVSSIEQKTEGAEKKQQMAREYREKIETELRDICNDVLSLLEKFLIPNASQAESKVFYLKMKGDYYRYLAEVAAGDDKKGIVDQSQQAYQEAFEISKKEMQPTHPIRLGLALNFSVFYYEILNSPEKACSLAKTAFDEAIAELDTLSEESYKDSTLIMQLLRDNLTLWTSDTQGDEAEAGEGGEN

No constants are given. Whether binding was seen depends on the method and setting. In cells and extracts the contact can be indirect. Some entries that bind do so weakly or less than the wild type.

Experiment [1] concerns the target beclin 1 (human (endogenous in HCC-LM3 and CSQT-2)) (UniProt Q14457). Description: co-IP; 200 μg cell protein of HCC‐LM3 or CSQT‐2 cells, anti‐beclin 1 antibody overnight, Protein A Agarose 2 hours, rinsed with 1x PBS; blot for 14‐3‐3ζ or VPS34; for VPS34 the cells were infected with n.c. oe‐LV or 14‐3‐3ζ oe‐LV.
In experiment [2] the target is flag‐labelled beclin 1^S295A (human) (UniProt Q14457). Description: co-IP; CSQT‐2 cells transfected with flag‐labelled beclin 1; anti‐flag antibody for IP, Protein A Agarose, anti‐14‐3‐3ζ antibody for IB.
Experiment [3] concerns the target flag‐labelled beclin 1^S295 (human) (UniProt Q14457). Described as above.

Consider 14‐3‐3ζ (from UniProt P63104 1-245), for which the binding entry in experiment [1] is “binds”; in experiment [2], “binds weakly”; in experiment [3], “binds”.
